{"source": "the supplement of paper PMC5949888", "note": "Most values lie at the floor of the assay. Slopes are relative: functional sequences can read slightly below zero.", "data": [{"system": "Saccharomyces cerevisiae PS128 hsf1 delta, HSF1(1-493) fusion", "test": "growth estimate (transactivation domain function in HSF1 fusion, heat-shock survival) (a.u. (slope of normalised read count over time)); higher = stronger growth at 37°C, i.e. more transactivation activity", "conditions": "library: random library", "values": [{"substance": "VSTCTSPLPK", "growth estimate": "< -0.25"}, {"substance": "VSTFKQ", "growth estimate": "< -0.25"}, {"substance": "VSTKGSYVMHVSHE", "growth estimate": "< -0.25"}, {"substance": "VSTTIGYKCLNGCTVYPGCS", "growth estimate": "< -0.25"}, {"substance": "VSVHRVT", "growth estimate": "< -0.25"}, {"substance": "VSVPFPIV", "growth estimate": "< -0.25"}, {"substance": "VSVTVRGHPRL", "growth estimate": -0.225}, {"substance": "VSWV", "growth estimate": "< -0.25"}, {"substance": "VSWVRVVQSEGIQCS", "growth estimate": "< -0.25"}, {"substance": "VSYNGIAGLWRVTKHSCYRQ", "growth estimate": "< -0.25"}, {"substance": "VSYTWSYEADGVLAERSLIS", "growth estimate": "< -0.25"}, {"substance": "VTCFLYYRSRYWPQ", "growth estimate": "< -0.25"}, {"substance": "VTESLPPRGGSKGRAGPCFR", "growth estimate": "< -0.25"}, {"substance": "VTFSTCLMKARCPIIVSGTS", "growth estimate": "< -0.25"}, {"substance": "VTFVGRILNRPSFT", "growth estimate": "< -0.25"}, {"substance": "VTGRKRIAISTGY", "growth estimate": "< -0.25"}, {"substance": "VTGVWERK", "growth estimate": "< -0.25"}, {"substance": "VTHKIVTRGCQTNLVDSRPI", "growth estimate": "< -0.25"}, {"substance": "VTIARLSCAGLFWTIDSGDQ", "growth estimate": "< -0.25"}, {"substance": "VTILLHERSSPSCSRTCTGG", "growth estimate": "< -0.25"}, {"substance": "VTKGRVGLLRLNV", "growth estimate": "< -0.25"}, {"substance": "VTKRCSERGVLRIDGNQVSA", "growth estimate": "< -0.25"}, {"substance": "VTL", "growth estimate": "< -0.25"}, {"substance": "VTLG", "growth estimate": "< -0.25"}, {"substance": "VTLGTGHKWQCLLPSPTGIT", "growth estimate": "< -0.25"}, {"substance": "VTLLREPRPTQSIFSLRGRA", "growth estimate": "< -0.25"}, {"substance": "VTLLSGSASATSDQPA", "growth estimate": "< -0.25"}, {"substance": "VTLQ", "growth estimate": -0.245}, {"substance": "VTN", "growth estimate": "< -0.25"}, {"substance": "VTNAVRVPP", "growth estimate": "< -0.25"}, {"substance": "VTNRYGLALLLAGVLCIRVI", "growth estimate": -0.246}, {"substance": "VTPAGAHRLC", "growth estimate": "< -0.25"}, {"substance": "VTRPSGS", "growth estimate": "< -0.25"}, {"substance": "VTRSDETGRTWTPLSPRLAR", "growth estimate": "< -0.25"}, {"substance": "VTSGSR", "growth estimate": -0.243}, {"substance": "VTSHLFNIG", "growth estimate": "< -0.25"}, {"substance": "VTTEGVTGI", "growth estimate": "< -0.25"}, {"substance": "VTVERDTGNGSKPVRIPYRC", "growth estimate": "< -0.25"}, {"substance": "VTVLERASDRKVIA", "growth estimate": "< -0.25"}, {"substance": "VTW", "growth estimate": "< -0.25"}, {"substance": "VTYGERGVAWPVR", "growth estimate": "< -0.25"}, {"substance": "VVACCRPFRKIR", "growth estimate": "< -0.25"}, {"substance": "VVACDRFGLDSSTAEATDRL", "growth estimate": "< -0.25"}, {"substance": "VVACHRVLILVGRTRCHVWA", "growth estimate": "< -0.25"}, {"substance": "VVAEYE", "growth estimate": "< -0.25"}, {"substance": "VVAHLP", "growth estimate": "< -0.25"}, {"substance": "VVAQEPIGYRGRCRSDCMGP", "growth estimate": "< -0.25"}, {"substance": "VVASGGSNKSLQGGASLGVG", "growth estimate": "< -0.25"}, {"substance": "VVCGPSV", "growth estimate": "< -0.25"}, {"substance": "VVCVSPCV", "growth estimate": "< -0.25"}, {"substance": "VVCWPRKHWELSILIIGSAM", "growth estimate": "< -0.25"}, {"substance": "VVDAVLPPVQ", "growth estimate": "< -0.25"}, {"substance": "VVDGPQCSGLAGGVTCDV", "growth estimate": "< -0.25"}, {"substance": "VVDI", "growth estimate": "< -0.25"}, {"substance": "VVEATGQRVIIWLLSPRCRR", "growth estimate": "< -0.25"}, {"substance": "VVGPLIGLVDCP", "growth estimate": "< -0.25"}, {"substance": "VVGQAAPG", "growth estimate": "< -0.25"}, {"substance": "VVGVEKQTRCSGWSC", "growth estimate": "< -0.25"}, {"substance": "VVIRLGRRLLFARH", "growth estimate": "< -0.25"}, {"substance": "VVKLECPDLTGVTPNQSLQE", "growth estimate": -0.246}, {"substance": "VVKPLWLLSL", "growth estimate": "< -0.25"}, {"substance": "VVKSQKLPSFGWRRPFSFRQ", "growth estimate": "< -0.25"}, {"substance": "VVLALGL", "growth estimate": "< -0.25"}, {"substance": "VVLAPWRETQRKSLRNRRRA", "growth estimate": -0.246}, {"substance": "VVLEFLGSSNCF", "growth estimate": "< -0.25"}, {"substance": "VVLHFRASYIPYLRLST", "growth estimate": "< -0.25"}, {"substance": "VVLIVIMGVAARRCIRNERR", "growth estimate": "< -0.25"}, {"substance": "VVLLPVLKIVDPVV", "growth estimate": "< -0.25"}, {"substance": "VVLMWNNVPQCA", "growth estimate": "< -0.25"}, {"substance": "VVLPA", "growth estimate": "< -0.25"}, {"substance": "VVLRGGCLAFITSAAIQQGH", "growth estimate": "< -0.25"}, {"substance": "VVLRHNPLFLALNALRERH", "growth estimate": "< -0.25"}, {"substance": "VVLRSHREVHF", "growth estimate": "< -0.25"}, {"substance": "VVLSVSILWER", "growth estimate": "< -0.25"}, {"substance": "VVLTLSLL", "growth estimate": "< -0.25"}, {"substance": "VVMFLTLEDS", "growth estimate": "< -0.25"}, {"substance": "VVNGPVNTPQLTTAHPCFRQ", "growth estimate": "< -0.25"}, {"substance": "VVPACGTSEASKVICGVGGL", "growth estimate": "< -0.25"}, {"substance": "VVPIVRTVRMTAYAAART", "growth estimate": "< -0.25"}, {"substance": "VVPT", "growth estimate": "< -0.25"}, {"substance": "VVQKTSETGLLRNGKREQHT", "growth estimate": -0.246}, {"substance": "VVRAPD", "growth estimate": "< -0.25"}, {"substance": "VVRGAYIVTMVTIKCFRWRI", "growth estimate": "< -0.25"}, {"substance": "VVRHLIRQGSELRDSGTTLL", "growth estimate": "< -0.25"}, {"substance": "VVRNDVVHGSFVGYLETSAE", "growth estimate": -0.25}, {"substance": "VVRR", "growth estimate": "< -0.25"}, {"substance": "VVRSWSPYQCRTFCGPVRPF", "growth estimate": "< -0.25"}, {"substance": "VVRTQDLKSIQQILRRNHTV", "growth estimate": -0.243}, {"substance": "VVRVAYEGFRTIVFRDSRNQ", "growth estimate": "< -0.25"}, {"substance": "VVSAASVNCRVRDLYRQLGQ", "growth estimate": "< -0.25"}, {"substance": "VVSDGKAVSIPPLPPGDFTR", "growth estimate": "< -0.25"}, {"substance": "VVSGVGQVSKGRVGSEGGLL", "growth estimate": "< -0.25"}, {"substance": "VVSIYKRPGVIARMSYYDL", "growth estimate": "< -0.25"}, {"substance": "VVSKNRGRVGGFEMQSNQKP", "growth estimate": "< -0.25"}, {"substance": "VVSQDALHRTNPIKDAYLVR", "growth estimate": "< -0.25"}, {"substance": "VVSRCTYQK", "growth estimate": "< -0.25"}, {"substance": "VVTS", "growth estimate": "< -0.25"}, {"substance": "VVVSQCTCPRPRGPEIESHP", "growth estimate": "< -0.25"}, {"substance": "VVWKPVTLVGL", "growth estimate": "< -0.25"}, {"substance": "VVYTCTG", "growth estimate": "< -0.25"}, {"substance": "VWAAFFNSGSSN", "growth estimate": "< -0.25"}]}]}
